# Assay results: patent US20100172925A1, “HLA-A2-[…]-CELL EPITOPES OF THE RESPIRATORY SYNCYTIAL VIRUS FUSION PROTEIN AS PEPTIDE-BASED VACCINES” (priority 2009, published 2010)
# Part of at least one peptide drawing is inferred or uncertain, most often the ends. No end group written: not given here.
# Tests used:
# Type in all cases: in vivo, mouse
# [1] = system: peptide-loaded T2 cells; assay: Cytotoxicity (CTL) assay, CFSE/7-AAD, splenocytes of peptide-immunized mice against peptide-loaded T2 cells; settings: E:T ratio of 100:1; IFA vehicle background 6.5%
# Description: A non-radioactive assay of cell-mediated cytotoxicity was performed using green fluorescent probes 5-(6)-carboxyfluorescein diacetate succinimidyl ester (CFSE) to label target cells in combination with 7-amino-actinomycin D (7AAD), a red fluorescent probe to label dead effector and dead target cells. The assay was used to assess the presence of the RSV F protein-specific CTLs in the spleens or lungs of the immunized animals [Russell et al. (2002) “Lymphocyte-mediated cytotoxicity” Annu Rev Immunol 20:323-70]. The assay protocol was in accordance with the manufacturer's instructions (Cayman Chemical, Michigan, USA). The assay entailed culturing splenocytes (5×10^6) with a candidate synthetic peptide (5.0 μg/mL) known to comprise a dominant HLA-A*0201-restricted CTL epitope in the presence of recombinant IL-2 (10 U/mL) at 37° C. for 5 days. Targets (T2 cells) were treated with the synthetic peptide (2.0 μg/mL) for 2 hours at 37° C. prior to the assay. Untreated T2 cells served as a negative control. The peptide-treated target cells (10^6) were suspended in 1×CFSE staining solution (1.0 mL), incubated at room temperature for 15 minutes, and centrifuged at 400×g for 5 minutes to remove the supernatant.
# The CFSE-labeled target cells were resuspended in the culture medium and incubated at 37° C. of CO2 incubator for 30 minutes. The CFSE-labeled target cells were plated onto 12-well plates (10^5/well, 10004) and co-cultivated with an appropriate number of in vitro restimulated splenocytes culture (as effectors cells) in defined effector:target (E:T) ratios in triplicate. Four hours later, the cell mixture was centrifuged and the pellet resuspended in the 7AAD staining solution (1.0 mL), and placed in the dark for 15 minutes at 4° C. […] The CFSE positive cells were measured in the FL1 channel and 7-AAD stained cells were measured in the FL3 channel. The percentage of CFSE/7-AAD double positive target cells (i.e., T2 cell death) was analyzed.
# It has been reported that in primary RSV infection of BALB/c mice, CTLs generated against the F, matrix 2 (M2) and N viral proteins play a protective role in virus clearance. […] A mean background percentage of the killed target cells co-cultured with the control splenocytes isolated from the mouse previously immunized with the vehicle IFA was scored (6.5% at the E:T ratio of 100:1). […]
# In FIG. 4, splenocytes prepared from mice previously immunized with the peptide Nos. 3, 13, 14, 17, 23, or vehicle were cultured and supplemented with murine IL-2 in the presence of 50.0 μg per mL of the same peptide for 5 days. […] The cultured splenocytes were counted, and viable cells were co-cultured with 10^4 peptide-preloaded T2 cells at a ratio of 100:1, 30:1, and 10:1 for four hours. […]
# [2] = system: RSV-B1; assay: Viral load in lungs after live RSV-B1 challenge of peptide-immunized mice; settings: two doses of peptide, 4 days post challenge; for protection against live RSV challenge (lung viral plaques, in words): challenge 10^6 pfu live RSV-B1
# Description: HLA-A2.1 transgenic C57BL/6 mice were anesthetized with isoflurane and primed with 1×10^7 pfu/50 μL of rAd-F0, rAd-LacZ or 1×10^4 live RSV B1 via the intranasal (i.n.) route. Twenty days later, animals were boosted i.n. with the same dose of respective immunogens. For peptide-based vaccination, transgenic mice were immunized subcutaneously (s.c.) with 50 μg of individual synthetic peptides emulsified in 100 μL of incomplete Freund's adjuvant (IFA) and then boosted s.c. with the same dose of respective peptides mixed with IFA one week later. Mice were sacrificed 7 days after the boost. The splenocytes were isolated and stimulated with synthetic CD8 epitope peptides in the presence of 5-(6)-carboxyfluorescein diacetate succinimidyl ester (CFSE) for 4 and 8 days. Proliferated CD4^+ or CD8^+ T cell counts were analyzed by flow cytometry (BD FACSCalibur) using PE-labeled specific antibody against CD4 or CD8, respectively. Cell dividing index (CDI), a ratio of a portion of CD4 or CD8 positive lymphocytes with low CFSE staining signal (CFSE^low) divided by a portion of high CFSE staining signaling (CFSE^high) of cells, represents the proliferating lymphocytes responsive to individual epitope peptides. For challenge studies, 1×10^6 pfu of live RSV-B1 was administered i.n. seven days after the second immunization of peptide vaccines.
# Whole lungs from individual experimental mice were removed and homogenized. The homogenized tissues were centrifuged at 3,000 rpm for 10 min at 4° C. to sediment cell debris. Supernatants were collected, serially diluted, and tested for their ability to infect Hep-2 cells in the plaque formation assay.
# In FIG. 5, mice were immunized via the intranasal route twice with the immunogen as indicated before they were intranasally challenged with 10^6 pfu of live RSV B1. Viral plaques in the lungs of the individual mice were determined 4 days post the challenge using plaque-forming assay as described in the methods. Results were expressed as the plaque number for each mouse. The horizontal bar represents the means of the plaque numbers obtained from each group. […] 14 and subsequently challenged with 1×10^6 pfu of live RSV-B1 viruses, as compared to 282±116 plaques detected in the lung tissues of mice immunized with the adjuvant IFA alone. […] 23. Animals immunized with peptide no. 3, 13, and 17 were not protected.
# [3] = system: RSV-B1; assay: Body weight after live RSV-B1 challenge of peptide-immunized mice; settings: 10^6 pfu live RSV B1 i.n.; for body weight change post live RSV-B1 challenge (in words): recorded daily for 5 days, versus vehicle (IFA alone)
Sequence,"percentage of killed target cells (CFSE and 7-AAD double positive T2 cells), CTL response [1] [%]","protection against live RSV challenge (lung viral plaques, in words) [2]",day post virus challenge on which maximal body weight loss was reached [3] [days],body weight change post live RSV-B1 challenge (in words) [3],"number of lung viral plaques ([2]; challenge 1×10^6 pfu live RSV-B1, IFA alone 282±116) [plaques]"
AITTILAAV [compound 3],28.3,not protected,2,no difference from the non-immunized mice,
KIMTSKTDV [compound 17],6.6,not protected,2,no difference from the non-immunized mice,
VILLSLIAV [compound 23],30.7,slightly lower level of protection,2,,
YMLTNSELL [compound 14],38.9,,2,significant recovery from the body weight loss,140±65
